Screen size: about 2,800 compounds; fewer than 10 were called active. Inconclusive results (about 7%) are left out. The call rests on the fitted dose curve; in most records, active means well fitted inhibition curve with a large enough effect; inconclusive means small, poorly fitted or top-dose-only effect; inactive means no such curve, though single readings can be large or run the other way. Some of the results follow.

By UniProt entry, the sequences of proteins in these tests, tags left out. Where a name states a change or a piece, a line headed by the entry shows the natural chain unless it says otherwise.
UniProt C7C422: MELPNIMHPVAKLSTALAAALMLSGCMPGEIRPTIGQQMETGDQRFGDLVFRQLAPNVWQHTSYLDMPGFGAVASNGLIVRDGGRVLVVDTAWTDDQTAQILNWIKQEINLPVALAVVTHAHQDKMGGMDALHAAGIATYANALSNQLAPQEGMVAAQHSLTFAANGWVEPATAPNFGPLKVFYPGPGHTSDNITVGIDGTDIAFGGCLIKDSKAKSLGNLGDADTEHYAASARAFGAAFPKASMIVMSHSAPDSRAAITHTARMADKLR

This is an account of results in PubChem BioAssay AID1794844 (National Center for Advancing Translational Sciences (NCATS), 2023).

For the test, the target named is Metallo-beta-lactamase type 2 (Klebsiella pneumoniae) (UniProt C7C422). Description: qHTS to identify inhibitors of the New Delhi Metallo-beta-lactamase (NDM): Nitrocefin screen against the machine-based learning selections. Further: % of control where 0% means no effect. Conditions: NDM-1 enzyme, nitrocefin hydrolysis, absorbance 485 nm; activity, negative = inhibition: at the top concentration. The method in brief: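 NDM-1 (2 nM final) in 50 mM HEPES pH 7.0, 1 uM Zn2SO4, 0.01% Tween20 was preincubated with compounds for >30 min. Nitrocefin (16.7 uM final) was read at 485 nm after 15 min, and meropenem (50 uM final) at 300 nm after 30 min.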
Background: Quantitative high-throughput screening tests each substance at several concentrations.
As to `O[C@@H]1C[C@@H](c2nc(-c3ccc4c(c3)OCO4)no2)N(Cc2cc3ccccc3o2)C1`, the “activity, negative = inhibition” value is inactive: 2.13% [at 57.5 µM]. `CN1C(=O)COC[C@@H]1[C@H](O)c1ccc(NC(=O)c2ccc(F)cc2)cc1`: the “activity, negative = inhibition” value is inactive: 8.82% [at 57.5 µM]. With `COc1ccc2[nH]c(C(=O)N[C@H]3COC[C@H]3Cc3cc(C)no3)c(C)c2c1`, the “activity, negative = inhibition” value is inactive: 3.51%. Then `Cc1nc(NCCc2ccn[nH]2)cc(C2CC(O)C2)n1` (stereo not drawn), with inactive: 0.241%; and `CCOc1cc(=O)n2c(c1C(=O)Nc1ccc(C)cc1)CCCC2`, with inactive: 0.632%; and `Cc1ccc(CN2CCC[C@H]2c2nc(-c3ccc(OC4CCCCC4)nc3)no2)cc1`, with inactive: -7.57% [at 57.5 µM].

Take `Cn1cnc2cc(-c3ccc(CO)cc3)cc(C(=O)NCc3cccnc3)c21`: the “activity, negative = inhibition” value was inactive: -1.39% [at 57.5 µM]. To `CC(C)C[C@@H]1N[C@H](C(=O)NC2CC2)Cc2cn(Cc3nccn3C)c3cccc1c23` belongs inactive: -3.02% [at 57.5 µM]; to `O=C(c1ccsc1)N1CCCn2cc(-c3ccccc3F)nc21`, inactive: 4.12%; to `Cc1cc(=O)[nH]c(NCCNC(=O)c2cccc(CCC(C)(C)O)c2)n1`, inactive: -3.4%.

As for `COc1ccc(NC(=O)c2ccc3c(c2)N(C)C2CCCCN2C3=O)cc1Cl` (stereo not drawn), the “activity, negative = inhibition” value is inactive: 1.22%.

For the molecule `CC(C)CN(Cc1cccnc1)C1CN(S(=O)(=O)Cc2ccccc2F)C1`, the “activity, negative = inhibition” value was inactive: -1.28%.

As for `COc1ccc2nc(C[C@@H]3C[C@@H](C(C)C)[C@H](CNC(=O)Nc4ccc(F)cc4)C=C3C)[nH]c2c1`, the “activity, negative = inhibition” value is inactive: -10.1%. As to `O=C(NCCc1ccccc1)c1cnc2n[nH]c(-c3ccccc3)c2n1`, the “activity, negative = inhibition” value was inactive: -10.9% [at 57.5 µM]. For the molecule `Cc1ccc(NC(=O)N2CCCC(c3nnc(CN(C)C)n3C)C2)cc1C` (stereo not drawn), the “activity, negative = inhibition” value was inactive: -9.64%.

Take `NC(=O)[C@H](CC1CCCCC1)NC(=O)[C@@H]1CN(C(=O)c2cccnc2)CCN1C(=O)C1CCNCC1`: the “activity, negative = inhibition” value is inactive: -6.08%. Take `O=C(Cn1ccn2nc(-c3ccc(F)cc3)c(CO)c2c1=O)N1CCCCCC1`: the “activity, negative = inhibition” value is inactive: 1.4%.

For the molecule `CC(O)CNS(=O)(=O)c1cccc(C(=O)Nc2cccc3c2CCC3)c1` (stereo not drawn), the “activity, negative = inhibition” value was inactive: 3.93%. For `CC(Cc1cccnc1)NC(=O)c1cn(Cc2ccccc2C(F)(F)F)nn1` (stereo not drawn), the “activity, negative = inhibition” value is inactive: 0.67%. To `CN1[C@@H](CCC(=O)Nc2ccccc2)CNC(=O)[C@@H]2[C@H]1CCN2Cc1ccc(S(C)(=O)=O)cc1` belongs inactive: -0.494%; to `NS(=O)(=O)c1ccc(CCNCC2(O)CNCCOC2)cc1` (stereo not drawn), inactive: -3.95%; to `CCN(CC)C(=O)[C@@H]1CCC[C@@H](NC2CCC2)CN(C)C(=O)C1`, inactive: 1.39% [at 57.5 µM]. Turning to `O=C(CCCc1ccccc1)N[C@@H]1CN(c2ccncn2)C[C@H]1CO`, the “activity, negative = inhibition” value was inactive: -4.2%.

For the molecule `O=C1CCC2(CCN(C/C=C/c3ccccc3)CC2)CN1CCCn1ccnc1`, the “activity, negative = inhibition” value was inactive: 8.89%.

Turning to `O=C(O)c1ccnc(-c2ccnc(NCCc3noc(C4CCC4)n3)n2)c1`, the “activity, negative = inhibition” value is inactive: 2.13%. To `c1cncc(Nc2cc3c(cn2)CN(Cc2ccsc2)CCN3)c1` belongs inactive: 5.1% [at 57.5 µM]. For `CCc1ccc(-c2nc(C3CC(=O)N(c4ccc(C)cc4)C3)no2)cc1` (stereo not drawn), the “activity, negative = inhibition” value was inactive: -5.26%.

`CC1(C(=O)Nc2ccc(C(N)=O)cc2)CCCc2cnc(Nc3ccccc3)nc21` (stereo not drawn): the “activity, negative = inhibition” value is inactive: 8.31% [at 57.5 µM]. Regarding `O=C([C@H]1O[C@H](CCN2C[C@@H]3C[C@H](C2)c2cccc(=O)n2C3)CC[C@@H]1O)N1CCN(c2ccccc2)CC1`, the “activity, negative = inhibition” value was inactive: -5.46%.

Regarding `CC(C)(CC(=O)O)CC(=O)N1CCN2C(=O)c3cc(-c4ccc(Cl)cc4)ccc3NC(=O)[C@H]2C1`, the “activity, negative = inhibition” value is inactive: -9.09%. To `O=C(O)[C@@H]1CN(C(=O)CCc2cccc(Cl)c2)C[C@H]1c1cccc(F)c1` belongs inactive: 8.24%. Then `COc1ccc(CN2CCNc3cc(Nc4cccnc4)ncc3C2)cc1O`, with inactive: 8.69% [at 57.5 µM]; and `Oc1cccc(-c2cc(-c3cccnc3)c3cncn3c2)c1`, with inactive: 11% [at 76.7 µM]. Regarding `O=C(c1cnccn1)N1CC[C@H]2COC(=O)N2c2cc(F)ccc2C1`, the “activity, negative = inhibition” value was inactive: -8.33% [at 57.5 µM]. To `COc1cccc(CN2CCCC3(CCN(C(=O)c4ccc(OC)nc4OC)C3)C2)c1` (stereo not drawn) belongs inactive: -9.72%; to `CN1CCCC2(CCN(S(=O)(=O)c3ccc(F)c(F)c3F)C2)C1=O` (stereo not drawn), inactive: -2.36%; to `NC1CCN(C(=O)C2CCCN(c3nc(-c4ccccc4)nc4c3CCC4)C2)CC1` (stereo not drawn), inactive: 3.18%. Then `Cn1cc(CNC(=O)C[C@@H]2C[C@H]3O[C@H](CNCc4ccccc4OC(F)(F)F)[C@@H](O)[C@H]3O2)cn1`, with inactive: -4.33%; and `COC(=O)c1ccc2nc(C[C@@H]3C[C@@H](C(C)C)[C@H](CNCc4ccccc4F)C=C3C)[nH]c2c1`, with inactive: -0.818%; and `CCN1CCC(CC(=O)N2CCCC3(C=Cc4ccccc4O3)CC2)CC1` (stereo not drawn), with inactive: 1.81%. To `CC1(C)C[C@H](NCc2ccc(CO)o2)[C@@]2(CCC(=O)N3CCOCC3)CC[C@](C)(O)C[C@@H]12` belongs inactive: 0.154%. Consider `O=C([C@H]1CCC[C@@H](O)C1)N1CCN(Cc2ccc(C(F)(F)F)cc2)CC1`, for which the “activity, negative = inhibition” value is inactive: -3.88%. To `CN1C(=O)COC[C@@H]1[C@H](O)c1ccc(NC(=O)c2ccc3c(c2)OCO3)cc1` belongs inactive: 0.218% [at 57.5 µM]; to `Cc1cc(=O)n(CC(=O)Nc2cccc(C(C)C)c2)c(N2CCOCC2)n1`, inactive: 3.04%; to `CC1(C(=O)Nc2ccncc2)CCCc2cnc(Nc3ccccc3)nc21` (stereo not drawn), inactive: 1.51% [at 57.5 µM]. Take `O=C(NCc1cnccn1)c1nc(-c2ccccc2)cc2[nH]ccc12`: the “activity, negative = inhibition” value was inactive: 5% [at 57.5 µM]. To `CC1=C[C@@H](CNC(=O)c2cncnc2)[C@H](C(C)C)C[C@H]1CC(=O)N(C)Cc1ccccc1` belongs inactive: -2.08% [at 57.5 µM]; to `CC(=O)N1CCN(c2cc(-c3noc([C@@H]4CCCN4Cc4ccc(C(F)(F)F)cc4)n3)ccn2)CC1`, inactive: -1.32%.
